Source: article PMC9822926
These are yes or no findings as the source states them, for the method shown. In cells and extracts the contact can be indirect. Some binding calls cover weakened binding; strength is not graded here.

The chains behind the UniProt entries cited, without tags or fusion partners.
UniProt P51148: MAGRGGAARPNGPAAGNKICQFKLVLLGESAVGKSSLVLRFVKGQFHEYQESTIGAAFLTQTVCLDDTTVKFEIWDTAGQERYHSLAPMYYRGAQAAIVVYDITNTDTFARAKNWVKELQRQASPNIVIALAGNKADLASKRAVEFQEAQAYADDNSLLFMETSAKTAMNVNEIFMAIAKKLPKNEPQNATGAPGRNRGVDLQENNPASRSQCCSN

Target: FLAG-RAB5C overexpressed in Scr and Mfn1KD C2C12 myoblasts (UniProt P51148)
Assay: co-IP; anti-FLAG magnetic beads O/N at 4 °C with lysate of stable Scr or Mfn1KD C2C12 myoblasts overexpressing FLAG-RAB5C; Tris HCl 50 mM, NaCl 150 mM, EDTA 5 mM, 1% digitonin; washes 0.1% digitonin; eluted with FLAG peptide; immunoblot; more Mfn2 in the IP of Mfn1KD cells

B1: Mfn2 (endogenous, C2C12 myoblasts) (protein, UniProt Q80U63 1-757)
chain: MSLLFSRCNSIVTVKKDKRHMAEVNASPLKHFVTAKKKINGIFEQLGAYIQESASFLEDTHRNTELDPVTTEEQVLDVKGYLSKVRGISEVLARRHMKVAFFGRTSNGKSTVINAMLWDKVLPSGIGHTTNCFLRVGGTDGHEAFLLTEGSEEKKSVKTVNQLAHALHQDEQLHAGSMVSVMWPNSKCPLLKDDLVLMDSPGIDVTTELDSWIDKFCLDADVFVLVANSESTLMQTEKQFFHKVSERLSRPNIFILNNRWDASASEPEYMEEVRRQHMERCTSFLVDELGVVDRAQAGDRIFFVSAKEVLSARVQKAQGMPEGGGALAEGFQVRMFEFQNFERQFEECISQSAVKTKFEQHTVRAKQIAEAVRLIMDSLHIAAQEQRVYCLEMREERQDRLRFIDKQLELLAQDYKLRIKQITEEVERQVSTAMAEEIRRLSVLVDEYQMDFHPSPVVLKVYKNELHRHIEEGLGRNLSDRCSTAIASSLQTMQQDMIDGLKPLLPVSMRNQIDMLVPRQCFSLSYDLNCDKLCADFQEDIEFHFSLGWTMLVNRFLGPKNSRRALLGYSDQVQRPLPLTPANPSMPPLPQSSLTQEELMVSMVTGLASLTSRTSMGILVVGGVVWKAVGWRLIALSFGLYGLLYVYERLTWTTKAKERAFKRQFVEYASEKLQLIISYTGSNCSHQVQQELSGTFAHLCQQVDITRDNLEQEIAAMNKKVEALDSLQSRAKLLRNKAGWLDSELNMFTHQYLQPSR
binding: binds
